At least one compound was matched to its structure with a doubt left.
Molecular target: T1, tTA (TetR-VP16 fusion) (Escherichia coli, UniProt P04483)
T1 construct: expressed in transfected cells; host or cells: Saccharomyces cerevisiae strain BY-TeCaOFF (integrated pSIB527, CMV promoter)
Assay: Orthogonality: Tet-Off GFP reporter in strain BY-TeCaOFF (microscopy)
Format: cell-based, Saccharomyces cerevisiae
From the text: FIG. 6. Independent regulation of fluorescent reporters, RFP and GFP, with camphor-Off and Tet-Off systems. (A) pSIB859 can be used for integrating the camphor-Off system at a single transformation. Its derivative plasmid pSIB872 carries mCherry as a reporter. (B) Plasmid pSIB498 for the Tet-Off system. Its derivative pSIB527 carries gfp as a reporter. (C)-(F) Strain BY-TeCaOFF carries both pSIB872 and pSIB527. Cell images in SC medium (C), SC with camphor (D), SC with Dox (E), and SC with camphor and Dox. The top, middle, and bottom rows represent images of RFP, GFP, and DIC, respectively. Strain BY-TeCaOFF was grown for 1 day in SC medium with the indicated compounds.
The experiments in this section were performed to examine whether the camphor-Off system was orthogonal/compatible with the Tet-Off system in a yeast strain. Firstly, we developed new two acceptor vectors: one was used for the camphor-Off switch and the other was the Tet-Off switch. […]
Cells were viewed with an Axioskop-2 microscope (Carl Zeiss, Oberkochen, Germany) equipped with an X-cite120 light source (ExFo, Ontario, Canada) and a fluorescence filter set. A 100× objective and AxioVision software were used to capture fluorescence and differential interference contrast (DIC) images.

Sequences of proteins named here, by UniProt entry; tags and fusion partners are left off. A line that says so, or that is headed by a name, gives the form on record, which may keep a tag or linker.
UniProt P04483, other isoform, or with tags, fused parts or gaps: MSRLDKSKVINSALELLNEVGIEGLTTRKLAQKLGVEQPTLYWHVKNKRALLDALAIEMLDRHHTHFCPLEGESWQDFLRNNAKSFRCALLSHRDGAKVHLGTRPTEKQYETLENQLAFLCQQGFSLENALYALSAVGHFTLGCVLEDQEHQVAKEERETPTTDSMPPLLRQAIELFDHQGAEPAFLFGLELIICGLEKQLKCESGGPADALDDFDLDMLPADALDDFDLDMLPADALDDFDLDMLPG

Question: Which “corresponding reporter protein (GFP, Tet-Off) on addition of the drug” value (25 μM, 1 day in SC medium) does the source give for `C[C@H]1c2cccc(O)c2C(=O)C2=C(O)[C@]3(O)C(=O)C(C(N)=O)=C(O)[C@@H](N(C)C)[C@@H]3[C@@H](O)[C@@H]21` [Dox, doxycycline] here?
Answer: drastic decrease

Question: And the “expression of GFP reporter when both camphor and Dox were supplied” value (camphor and Dox 25 μM each)?
Answer: repressed

Reference: US10093938B2, “Regulated switch for gene expression” (The Johns Hopkins University, priority 2014, dated 2018)
